Test: Endogenous plasma levels of kinin peptides in healthy volunteers (LC-MS/MS)
Parameters: species or system human
Details: three healthy volunteers (2 men, 1 person), EDTA S-Monovettes prespiked with protease inhibitor

Chains of the proteins cited; added tags and fusions are not shown. Lines headed by an entry give the natural chain unless they say otherwise; changes in a name come on top.
UniProt P01042: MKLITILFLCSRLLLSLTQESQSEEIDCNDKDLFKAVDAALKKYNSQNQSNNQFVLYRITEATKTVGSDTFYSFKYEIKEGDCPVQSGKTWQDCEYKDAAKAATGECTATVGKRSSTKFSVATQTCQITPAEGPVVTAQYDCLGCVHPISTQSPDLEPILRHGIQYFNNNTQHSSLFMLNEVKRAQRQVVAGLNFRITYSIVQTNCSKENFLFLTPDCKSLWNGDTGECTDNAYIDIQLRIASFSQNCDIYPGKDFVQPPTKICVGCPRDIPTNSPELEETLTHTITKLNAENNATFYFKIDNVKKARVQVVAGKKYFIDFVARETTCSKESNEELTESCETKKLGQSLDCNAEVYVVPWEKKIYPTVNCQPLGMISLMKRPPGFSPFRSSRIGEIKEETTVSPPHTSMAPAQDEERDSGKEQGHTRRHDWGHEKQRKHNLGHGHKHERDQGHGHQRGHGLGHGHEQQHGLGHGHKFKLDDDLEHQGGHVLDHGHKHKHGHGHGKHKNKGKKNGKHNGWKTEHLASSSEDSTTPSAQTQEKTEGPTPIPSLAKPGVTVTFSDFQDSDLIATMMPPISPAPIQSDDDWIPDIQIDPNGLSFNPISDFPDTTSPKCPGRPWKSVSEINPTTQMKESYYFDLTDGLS

| Substance | Endogenous plasma levels |
| --- | --- |
| bradykinin 2-9 (PPGFSPFR; Bradykinin; UniProt P01042 382-389, looked up, fragment) [major metabolite of bradykinin] | below the quantification limit |
| bradykinin 1-7 (RPPGFSP; Bradykinin; UniProt P01042 381-387, looked up, fragment) | below the quantification limit |
| bradykinin 1-5 (RPPGF; Bradykinin; UniProt P01042 381-385, looked up, fragment) | below the quantification limit |
| Kallidin | below the quantification limit |

Reference: paper PMC7946403, “Targeted LC-MS/MS platform for the comprehensive determination of peptides in the kallikrein-kinin system” (Analytical and Bioanalytical Chemistry, 2021)
